Laboratory results: PubChem BioAssay AID445 (National Center for Advancing Translational Sciences (NCATS), 2006)
This is one part of the list. These are further read-outs of the screen, such as a control signal, another cell line or another target. No call is given for them. Compounds called inactive in the main read-out are mostly missing here. Potencies come from curve fits of mixed quality, noted in brackets.

Experiment: IkB Signaling
Conditions: ABC-DLBCL IkBa-CBG/CBR dual luciferase ratio (green luciferase fused to IkBa over red control in OCI-Ly3 lymphoma cells), 4 h; measured here: control luc red channel unless noted
Outline: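 Curves were fitted separately to fusion (green), unfused (red) and ratio luminescence, then classed by r2, magnitude and activity. Cells: OCI-Ly3, 4 h compound plus doxycycline at 37C; 10 uM MG-132 defined full response.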

| SMILES | AC50 |
| --- | --- |
| O=C(Cn1c(=O)c2cccn2c2ccccc21)NCCc1ccccc1 | 10 µM [falling, partial curve] |
| CCc1cccc(NC(=O)CSC2=Nc3ccccc3N=C(c3ccc(F)cc3)C2)c1 | 12.6 µM [falling, partial curve, poor fit] |
| O=C(CSc1nnc(CNC(=O)c2cccc(F)c2)n1-c1ccccc1)Nc1ccccc1F | 3.98 µM [falling, partial curve] |
| COc1ccc(Nc2nc(-c3ccc(C)cc3)nc3ccccc23)c(OC)c1 | 12.6 µM [falling, partial curve] |
| CCCCCn1c(C(C)NC(=O)c2ccccc2)nc2ccccc21 (stereo unspecified) | 1.58 µM [falling, full curve, poor fit] |
| CCOC(=O)COc1cccc2c(=O)n(CC(=O)NCc3ccc4c(c3)OCO4)ccc12 | 0.631 µM [rising, full curve, poor fit] |
| Cc1ccc2[nH]c(=O)c(CN(Cc3ccc4c(c3)OCO4)Cc3nnnn3Cc3ccco3)cc2c1 | 6.31 µM [falling, partial curve] |
| CCOc1cc(CNC(=O)C2COc3ccccc3C2)cc(OCC)c1OCC (stereo unspecified) | 12.6 µM [falling, partial curve] |
| CCOc1ccc(-c2ccc(NS(=O)(=O)c3ccc(C)cc3)cc2)nn1 | 0.00631 µM [falling, full curve, poor fit] |
| Cc1cccn2c(=O)c(/C=C(\C#N)c3nc4ccccc4[nH]3)c(Oc3ccc(C(C)(C)C)cc3)nc12 | 25.1 µM [falling, single point] |
| Nc1nonc1C(=O)NCCNCc1cc(Br)ccc1OCc1ccc(F)cc1 | 12.6 µM [falling, partial curve] |
| O=C(CCc1nc(-c2cccs2)no1)Nc1cccc([N+](=O)[O-])c1 | 39.8 µM [falling, single point] |
| Cc1ccc(C)c(N2CCN(C(c3ccccc3)c3nnc(-c4ccccc4F)o3)CC2)c1 (stereo unspecified) | 10 µM [falling, partial curve] |
| O[C@@H](C1=C/C(=C\c2ccncc2)c2ccccc21)c1ccncc1 | 5.01 µM [rising, single point] [measured here: IkB-luc green channel] |
| Cc1ccc(-c2nc3n(n2)C(=O)CC(c2ccc(Cl)cc2)S3)cc1 (stereo unspecified) | 39.8 µM [falling, single point] |
| Cc1c(C(=O)NCCc2ccccc2)oc2ccc(S(=O)(=O)N3CCC4(CC3)OCCO4)cc12 | 10 µM [falling, partial curve] |

| SMILES | AC50 |
| --- | --- |
| O=C(NCc1ccc(F)cc1)c1cc2n(n1)CCCN(Cc1ccc(F)cc1)C2=O | 39.8 µM [falling, single point] |
| Cc1ccc(C(=O)Nc2sc3c(c2C(=O)NCc2ccco2)CCC(C(C)(C)C)C3)cc1 (stereo unspecified) | 7.94 µM [falling, single point] |
| Cc1ccc(C)c(N2CCN(CCCNC(=O)c3cnn(-c4ccccc4Cl)c3C3CCN(C(=O)OC(C)(C)C)CC3)CC2)c1 | 12.6 µM [falling, partial curve] |
| CCOc1ccc(Sc2cc(C(=O)NC(C)c3ccccc3)c3ccccc3n2)cc1 (stereo unspecified) | 1.26 µM [falling, full curve, poor fit] |
| Cc1ccc(OCC(=O)Nc2cc3nn(-c4ccccc4)nc3cc2C)cc1 | 15.8 µM [falling, partial curve] |
| Cc1ccsc1CN(C(=O)COc1ccc(Br)cc1)C1CCS(=O)(=O)C1 (stereo unspecified) | 25.1 µM [falling, partial curve] |
| Cc1ccc(C(=O)Nc2ccc(NC(=O)c3cccs3)cc2)cc1C | 15.8 µM [falling, partial curve] |
| Cc1cc(Cl)ccc1NC(=O)C(=O)NCc1ccco1 | 39.8 µM [falling, single point] |
| Cc1ccc(N2C(=O)CSC23C(=O)N(CC(=O)NCc2ccccc2)c2ccccc23)cc1C (stereo unspecified) | 20 µM [falling, single point] |
| COCCCNC(=O)c1ccc(NC(=O)c2nsc3ccccc23)cc1 | 3.98 µM [falling, partial curve] |
| COc1ccccc1CNC(=O)C1CCC(CNS(=O)(=O)c2ccc3c(c2)CCCC(=O)N3)CC1 (stereo unspecified) | 25.1 µM [falling, partial curve] |
| COC(=O)c1cc2sc(Cl)cc2n1CC(=O)Nc1ccc(OC)c(OC)c1OC | 7.94 µM [falling, full curve] |
| COc1ccc(CNC(=O)c2ccc(N3CCCC3)c(NC(=O)NCc3ccc(F)cc3)c2)cc1 | 12.6 µM [falling, partial curve] |
| CS(=O)(=O)c1ccc(-c2nnc(NC(=O)c3ccc4c(c3)OCCO4)o2)cc1 | 2 µM [falling, partial curve, poor fit] |
| CCC1CN(C(=O)N2CCC(C(=O)NCCN(CC)CC)CC2)c2cc(C)ccc2O1 (stereo unspecified) | 12.6 µM [falling, partial curve] |

Among those listed so far, six have fluorine.

| SMILES | AC50 |
| --- | --- |
| CCc1cccc(NC(=O)CSC2=Nc3ccccc3N=C(c3ccc(F)cc3)C2)c1 | 12.6 µM [falling, partial curve, poor fit] |
| O=C(CSc1nnc(CNC(=O)c2cccc(F)c2)n1-c1ccccc1)Nc1ccccc1F | 3.98 µM [falling, partial curve] |
| Nc1nonc1C(=O)NCCNCc1cc(Br)ccc1OCc1ccc(F)cc1 | 12.6 µM [falling, partial curve] |
| Cc1ccc(C)c(N2CCN(C(c3ccccc3)c3nnc(-c4ccccc4F)o3)CC2)c1 (stereo unspecified) | 10 µM [falling, partial curve] |
| O=C(NCc1ccc(F)cc1)c1cc2n(n1)CCCN(Cc1ccc(F)cc1)C2=O | 39.8 µM [falling, single point] |
| COc1ccc(CNC(=O)c2ccc(N3CCCC3)c(NC(=O)NCc3ccc(F)cc3)c2)cc1 | 12.6 µM [falling, partial curve] |
